The values that follow come from patent US20030087799A1, “Modulation” (priority 2001, published 2003).

Data set [1] deals with SK mediated AHP currents (I-AHP) in dopaminergic neurons. In kind it is cell-based, mouse.
Data set [2] deals with T-type calcium channels (low voltage-activated calcium currents). In kind it is cell-based, mouse.

Read-outs that look alike come from different tables or passages of the source.

On to `COCC(=O)O[C@]1(CCN(C)CCCc2nc3ccccc3[nH]2)CCc2cc(F)ccc2[C@@H]1C(C)C` [mibefradil, Mibefradil], for which the “Hill coefficient of I-AHP inhibition” value in data set [1] (mean dose-response) amounted to 1.8. The “Hill coefficient of I-LVA inhibition” value in data set [2] (mean dose-response) is reported as 2.3.
In the case of `[Ni+2]` [nickel], in data set [1], the “Hill coefficient of I-AHP inhibition” value came to 1.3. Besides, the “Hill coefficient of I-LVA inhibition” value in data set [2] came to 0.9.
